Holding throughout (assay): co-IP
Assay [1] deals with T1, P450scc, rat testis (rat (endogenous in testis)) (UniProt P14137).
T1 sequence: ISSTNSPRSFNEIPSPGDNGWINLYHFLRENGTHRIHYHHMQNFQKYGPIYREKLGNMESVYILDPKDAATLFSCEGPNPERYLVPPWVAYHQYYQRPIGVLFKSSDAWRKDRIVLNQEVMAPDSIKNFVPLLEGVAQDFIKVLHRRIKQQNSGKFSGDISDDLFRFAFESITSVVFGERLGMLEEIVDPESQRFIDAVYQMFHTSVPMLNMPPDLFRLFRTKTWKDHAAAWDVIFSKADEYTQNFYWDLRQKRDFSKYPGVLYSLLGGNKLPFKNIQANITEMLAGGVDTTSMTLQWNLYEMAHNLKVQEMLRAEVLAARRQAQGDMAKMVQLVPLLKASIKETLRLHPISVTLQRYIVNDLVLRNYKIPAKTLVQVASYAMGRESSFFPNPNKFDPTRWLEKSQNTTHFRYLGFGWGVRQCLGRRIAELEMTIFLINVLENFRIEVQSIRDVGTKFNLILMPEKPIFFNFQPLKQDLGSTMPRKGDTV

The target in assay [2] is T2, SOD2 (MnSOD), rat testis (rat (endogenous in testis)) (UniProt P07895).
T2 sequence: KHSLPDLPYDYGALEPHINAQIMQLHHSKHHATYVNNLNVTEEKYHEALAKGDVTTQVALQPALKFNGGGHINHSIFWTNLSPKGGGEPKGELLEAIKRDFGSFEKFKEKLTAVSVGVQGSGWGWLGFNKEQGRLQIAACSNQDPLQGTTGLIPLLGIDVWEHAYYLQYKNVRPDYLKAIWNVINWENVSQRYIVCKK

The target of assay [3] is T3, P450scc, TM3 mouse Leydig cells (mouse (endogenous in TM3)) (UniProt Q9QZ82).
T3 sequence: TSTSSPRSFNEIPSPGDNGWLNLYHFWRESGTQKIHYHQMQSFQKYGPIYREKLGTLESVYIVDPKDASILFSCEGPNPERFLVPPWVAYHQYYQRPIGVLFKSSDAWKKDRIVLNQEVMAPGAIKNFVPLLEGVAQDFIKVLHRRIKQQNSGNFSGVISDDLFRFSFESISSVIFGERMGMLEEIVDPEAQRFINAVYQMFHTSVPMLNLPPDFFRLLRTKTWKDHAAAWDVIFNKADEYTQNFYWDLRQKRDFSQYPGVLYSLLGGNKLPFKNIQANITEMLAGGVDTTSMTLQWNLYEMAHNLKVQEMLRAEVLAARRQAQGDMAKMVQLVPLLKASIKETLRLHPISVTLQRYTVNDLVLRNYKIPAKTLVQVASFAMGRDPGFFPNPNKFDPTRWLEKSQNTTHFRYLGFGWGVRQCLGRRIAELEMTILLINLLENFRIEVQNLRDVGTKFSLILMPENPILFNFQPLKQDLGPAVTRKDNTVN

These are yes or no findings as the source states them, for the method shown. Binding seen in cells or lysates may run through a third protein. Binding can be weak; no strength is given.

As for Sirtuin 3 (SIRT3), rat testis (enzyme), the binding entry in assay [1] and in assay [2] was “binds” throughout. On to “Mouse Sirt3 overexpressed from adenovirus (Ad-Sirt3) (enzyme)”, for which the binding entry in assay [3] is listed as “binds”.

Source of the values: paper doi:10.1101/2021.02.22.432399.
